This is an account of results in PubChem BioAssay AID493014 (National Center for Advancing Translational Sciences (NCATS), 2011).

Each structure is given as a SMILES string. Some of the results follow. The main result of the screen is listed elsewhere. These columns were measured beside it and carry no call. The list favours compounds with an active or inconclusive main result. The note in brackets gives the kind of curve behind each potency; many fits are weak.

As usually defined, the AC50 is the concentration giving half of the maximal activity seen.

A short description of the assay: qHTS Assay to Find Inhibitors of Chronic Active B-Cell Receptor Signaling. As to conditions: ABC-DLBCL IkBa-CBG/CBR reporter, luminescence ratio (green luciferase fused to IkBa over red control in TMD8 lymphoma cells), 4 h. The procedure, abridged:
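Cell line TMD8 (human ABC DLBCL), stably expressing tet-inducible CBG68-IkBa fusion and CBR; IMDM/0.5% FBS; cpd up to 46 uM; dox induction, 4 h, 37C/5% CO2; dual luminescence; green/red ratio; MG132 control.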
A general note: qHTS replaces the single test concentration by a dilution series.

[1] abbreviates: measured here: CBR red luminescence, cell number.
Setting [2] is: measured here: IkBa-CBG green luminescence.

Regarding `c1ccc(OCCOc2ncnc3ccccc23)cc1`, under setting [1], the half-maximal activity concentration (AC50) was 1.41 µM [rising, partial curve].
Still for that read-out and setting: the result for `O=C(O)c1cc2n(n1)CCN(Cc1ccccc1Cl)C2=O` reads 5.62 µM [falling, single point]; that for `CC(=O)c1c(N2CCN(Cc3ccccc3)CC2)[nH]c(-c2ccccc2)nc1=S`, 17.8 µM [rising, partial curve, poor fit].
On to `CCCCNc1c(-c2ccc(SC3CCCCC3)c(OC)c2)nc2ccc(Cl)cn12`, for which the AC50 under setting [1] was 16.4 µM [rising, single point].
With `CCOc1ccc(OCc2ccc(C(=O)N/N=C(\C)c3ccccn3)cc2)cc1`, the AC50 by setting is: under setting [1], 12.6 µM [rising, partial curve]; under setting [2], 1.58 µM [falling, full curve].
On to `Cc1c(C(=O)N2CCOCC2)sc(NC(=O)c2ccccc2F)c1C#N`, for which the AC50 under setting [1] is 12.6 µM [falling, single point].
Regarding `CC(C(=O)Nc1ccccc1F)N1C(=O)c2ccccc2C1=O` (centres undefined), the concentration at half-maximal activity (AC50) under setting [1] was 3.98 µM [rising, partial curve, poor fit].
Regarding `Cc1ccc2nc(-c3ccc4c(c3)OCCO4)cc(C(=O)O)c2c1`, the AC50 under setting [1] was 10.3 µM [falling, partial curve].
On to `O=C(CCl)NC(Cc1ccccc1)c1ccccc1` (centres undefined), for which the AC50 under setting [1] was 12.6 µM [falling, partial curve].
As to `CC(C)CC(NC(=O)c1ccc(Cl)cc1)C(=O)O` (centres undefined), under setting [1], the AC50 is 0.461 µM [rising, full curve, poor fit].
Still for that read-out and setting: the figure for `COc1ccc2c(c1)CCC(C)N2C(=O)C(=O)c1c[nH]c2ccccc12` (centres undefined) is 22.4 µM [falling, partial curve, poor fit].
As to `CS/C(N)=N/N=C/c1c(O)ccc2ccccc12`, the AC50 under setting [2] was 17.8 µM [falling, single point].
On to `O=C(Nc1cccnc1Cl)c1noc2c1CCc1ccccc1-2`, for which the AC50 under setting [1] was 35.5 µM [rising, single point].
As to `Cc1cc(C)cc(NC(=O)C2C3C=CC4(O3)C2C(=O)N(CCCN2CCCCC2)C4C(=O)NC2CCCCC2)c1` (centres undefined), the AC50 under setting [1] is 6.31 µM [rising, partial curve, poor fit].
As for `O=C(OCC1CC(c2ccccc2)=NO1)c1ccco1` (centres undefined), under setting [1], the AC50 was 12.6 µM [rising, single point].
`COc1ccc(NC(=O)NC2CCCc3ccccc32)cc1` (centres undefined): the AC50 under setting [1] is 2.51 µM [falling, partial curve].
With `Cc1cccnc1NC(=O)CN1C(=O)COc2ccc(Cl)cc21`, the AC50 under setting [1] was 12.6 µM [rising, single point].
With `COC(=O)c1sc2ccccc2c1-n1cccc1C(=O)C(=O)Nc1ccc(F)cc1`, under setting [1], the AC50 is 1.78 µM [falling, partial curve, poor fit].
Consider `CSc1ccccc1-n1nnnc1SCC(=O)Nc1cc(C)ccc1C`, for which, under setting [1], the AC50 is 14.6 µM [falling, partial curve].
On to `CC(C)(C)c1ccc(N2C(=O)CC(c3ccccc3)C2=O)cc1` (centres undefined), for which the AC50 under setting [1] is 11.2 µM [rising, partial curve].
For `Cn1cncc1C#Cc1ccc2c(=O)c3ccccc3oc2c1`, the AC50 under setting [1] is 3.26 µM [rising, single point].
With `COc1ccc(-c2c(C)cc3oc(=O)cc(-c4ccccc4)c3c2C)cc1`, the AC50 under setting [1] is 29.1 µM [rising, single point].
As to `Cc1nc2c(C(=O)NCCc3ccccc3Cl)c[nH]n2c(=O)c1Cl`, the AC50 under setting [1] was 0.411 µM [rising, full curve, poor fit].
Consider `CSc1nc2c(c(=O)n1-c1ccc(C)cc1)SCC2`, for which the AC50 under setting [1] is 10.3 µM [rising, partial curve, poor fit].
On to `Cc1ccc(C(=O)Nc2cc3[nH]c(=O)oc3cc2C)cc1`, for which the concentration at half-maximal activity (AC50) under setting [1] is 0.794 µM [falling, partial curve, poor fit].
On to `Cc1nn(CCC(=O)NNC(=S)Nc2ccc([N+](=O)[O-])cc2)c(C)c1[N+](=O)[O-]`, for which the AC50 under setting [1] was 0.708 µM [rising, full curve, poor fit].
For the compound `Cc1cccc(C(=O)Nc2cccc3c2CCCC3)c1`, under setting [1], the AC50 is 15.8 µM [rising, partial curve].
As for `O=C(Nc1ccc(F)cc1)c1cc2cc(Cl)ccc2[nH]1`, under setting [1], the AC50 was 7.94 µM [falling, partial curve, poor fit].
Turning to `COc1cc(C2NCCc3c2[nH]c2ccccc32)ccc1OC(C)C` (centres undefined), the AC50 under setting [1] was 35.5 µM [falling, single point].
As to `CCCNC(=O)c1ccc(-c2nn(C)c(=O)c3ccccc23)cc1`, the AC50 reads like this: under setting [1], 12.6 µM [rising, partial curve, poor fit]; under setting [2], 11.2 µM [falling, partial curve, poor fit].
As to `Cc1cc(=O)[nH]c(N/N=C/c2ccc(-c3ccc(F)cc3)o2)n1`, the AC50 under setting [1] was 1.78 µM [falling, partial curve].
In the case of `CN(C)c1cc[nH]c(=O)c1C#N`, the AC50 under setting [1] is 14.6 µM [falling, partial curve, poor fit].
The same measure, in the same setting: the figure for `CCN(CC)CCNCc1cc(Cl)c(OCC(=O)Nc2ccccc2)c(OC)c1` is 12.6 µM [falling, single point].
The same measure, in the same setting: the result for `N/C(Cc1cccc2ccccc12)=N\OC(=O)Cc1cccs1` reads 14.6 µM [rising, single point]; that for `COc1ccc(N2CCN(C(=O)CSc3ncccc3-c3nc4ccccc4[nH]3)CC2)cc1`, 2 µM [falling, full curve, poor fit].
For `Cc1ccc(OCC(=O)OCC(=O)NC2CC2)cc1C`, the AC50 under setting [1] was 1.84 µM [rising, partial curve, poor fit].
For `c1ccc2c(c1)[nH]c1c3ccccc3sc21`, the AC50 is, setting by setting: under setting [1], 1.41 µM [rising, partial curve]; under setting [2], 25.1 µM [rising, partial curve, poor fit].
As to `COC(=O)CSc1nnc(-c2sc3ccccc3c2Cl)o1`, the AC50 under setting [1] is 2.51 µM [falling, full curve, poor fit].
In the case of `O=C(CCN1C(=O)c2ccccc2C1=O)N1CCN(c2ccccn2)CC1`, under setting [1], the AC50 was 6.31 µM [falling, single point].
As for `CCOC(=O)c1cc(NCc2cccs2)ccc1N1CCOCC1`, the AC50 under setting [1] was 35.5 µM [rising, partial curve, poor fit].
For the compound `Cc1c(CCC(=O)N2CCC(C(=O)O)(c3ccccc3)CC2)c(=O)oc2cc3oc4c(c3cc12)CCCC4`, the AC50 reads like this: under setting [1], 7.94 µM [rising, partial curve]; under setting [2], 12.6 µM [falling, partial curve].
Turning to `Cc1cccc(-n2ncc3c(NCCc4ccc(S(N)(=O)=O)cc4)ncnc32)c1`, the AC50 under setting [1] was 1.3 µM [falling, full curve].
For the compound `C=CCn1c(SC(C)C(=O)NCc2ccc3c(c2)OCO3)nnc1C1CCCCC1` (centres undefined), the AC50 under setting [1] is 28.2 µM [falling, single point].
In the case of `CNCCOc1ccccc1-c1ccccc1`, under setting [1], the AC50 was 29.1 µM [falling, single point].
With `Cc1cccc(C(=O)N(CC(=O)Nc2sc(C)c(C)c2C(N)=O)C2CCCC2)c1`, the AC50 under setting [1] was 3.98 µM [falling, partial curve].
Turning to `CCCCOC(=O)c1ccc(NC(=O)C2CCCO2)cc1` (centres undefined), the AC50 under setting [1] was 5.17 µM [rising, full curve, poor fit].
For `O=C(NCCCN1CCOCC1)C(=O)NCc1ccccc1Cl`, the AC50 under setting [1] is 2.51 µM [falling, partial curve, poor fit].
As to `CCC(=O)N1CCc2cc(Br)cc(S(=O)(=O)NCCN3CCCC3)c21`, the AC50 under setting [1] was 11.2 µM [rising, partial curve, poor fit].
As to `CCOC(=O)C1(Cc2ccccc2)CCCN(Cc2ccncc2)C1` (centres undefined), the AC50 under setting [1] is 1.26 µM [falling, partial curve, poor fit].
On to `CN(C)c1ccc(/C=C(\C#N)C(=O)OCC(=O)N(C)C2CCS(=O)(=O)C2)cc1` (centres undefined), for which the concentration at half-maximal activity (AC50) under setting [1] was 29.1 µM [rising, single point].
Consider `COc1ccc(-c2cnc3c(c2)CCC3(C#N)C#N)cc1`, for which the AC50 was 4.11 µM [rising, full curve] under setting [1] and 7.31 µM [falling, partial curve] under setting [2].
In the case of `Cc1ccc(C(=O)N/C(=C\c2cccs2)C(=O)NCCCn2ccnc2)cc1C`, under setting [1], the AC50 was 6.31 µM [rising, single point].
As to `CCCCOc1ccc(-c2nnn(C(C)(C)C(=O)OC)n2)cc1`, under setting [1], the AC50 was 2.91 µM [rising, full curve].
On to `Cc1ccc(C)c(CS(=O)(=O)c2cn(CC(=O)N3CCCCC3)c3ccccc23)c1`, for which, under setting [1], the AC50 was 18.4 µM [falling, single point].
Take `CCCCN(CCCC)/C(N)=N/c1nc(C)cc(C)n1`: under setting [1], the AC50 is 0.794 µM [falling, full curve, poor fit].
On to `COc1ccc2nc(NC(=O)CSc3nc4cccnc4n3C)sc2c1`, for which the AC50 under setting [1] is 2.06 µM [falling, partial curve].
In the case of `Cc1ccc(C(=O)C(C)OC(=O)c2ccccc2[N+](=O)[O-])cc1` (centres undefined), the AC50 under setting [1] was 16.4 µM [rising, partial curve].
The same measure, in the same setting: the result for `O=C(CCCN1C(=O)/C(=C/c2ccco2)SC1=S)Nc1ccccc1C(=O)O` reads 12.6 µM [falling, partial curve, poor fit]; that for `CC(C)C(=O)Nc1cc2c3c(c1)CCN3C(=O)CC2`, 22.4 µM [rising, single point].
Same read-out and setting: the result for `COc1cccc(NC(=O)Cn2cc3c(n2)CCCCC3)c1` reads 11.6 µM [falling, partial curve, poor fit]; that for `COCCN(CC(=O)Nc1cccc(C)c1C)C(=O)Cc1cccs1`, 29.1 µM [rising, single point].
Regarding `COc1ccc(S(=O)(=O)Nc2ccc(NC(C)=O)cc2)cc1OC`, the AC50 under setting [1] is 20.6 µM [rising, partial curve, poor fit].
For `CCOC(=O)C(C)Sc1nnc(NC(=O)c2ccc(C)c([N+](=O)[O-])c2)s1` (centres undefined), the AC50 under setting [1] was 20.6 µM [falling, partial curve].
On to `NC(=O)Oc1cccc(OC(N)=O)c1`, for which the AC50 under setting [1] is 14.1 µM [rising, single point].
